# PubChem BioAssay AID1259283, Sanger Institute | 2017
# Assay: 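Kinome-wide siRNA search for kinases acting with BYL719, cetuximab or trametinib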 (primary screen)
# Cells: HT115 colorectal cancer cells
# Knock-down reagent: siRNA pool against human genes
# Treatment: anchor drug given one day after siRNA: BYL719 at 1 µM, cetuximab at 5 µg/ml, trametinib at 10 nM, or DMSO vehicle alone
# Detection: 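Viability normalised to non-targeting pool #2 wells and averaged over replicates, robust z-score against control wells, and a synergy score for each of three drugs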
# Scale: robust z-score, knock-down alone: higher = more viable cells after knock-down; viability, DMSO vs non-targeting control: higher = more viable cells; synergy score with BYL719 and synergy score with cetuximab and synergy score with trametinib: higher = stronger synergy with drug (synthetic lethal)
# Call rule: 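a gene counts as essential when its robust z-score with knock-down alone is below -3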
# Meaning of the calls: active = essential (z below -3, no drug); inactive = no change without drug
# The whole screen tested 794 reagents; this is an unselected part. 14 of all reagents (1.8%) were called active. 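Calls reflect only viability loss without drug; drug synergy does not enter the call.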 A number with no mark means an inactive call. No viability above 1 is reported: the scale is capped. Not given: the amount of reagent, the time to read-out.
Gene,PubChem SID,"robust z-score, knock-down alone","viability, DMSO vs non-targeting control (fraction of control)",synergy score with BYL719,synergy score with cetuximab,synergy score with trametinib
CAMK1D,SID152153083,0.789,1,0.00933,0.0641,0.0501
EPHB1,SID152152600,0.214,0.947,0.00991,0.0317,0.0848
GAK,SID152148846,-0.165,0.912,0.0211,-0.0148,0.0964
PFKFB4,SID152152940,0.789,1,-0.00056,0.0678,0.211
LIMK2,SID152148517,0.651,0.987,0.0997,0.0389,0.204
DAPK2,SID152156399,0.62,0.984,0.000328,0.0742,0.126
HUS1,SID135620649,-0.976,0.837,0.00793,-0.0811,-0.0227
PRKX,SID152149946,0.789,1,-0.0224,-0.0214,0.0955
NEK11,SID152147168,-2.76,0.672,0.00644,0.0105,-0.0619
PHKA2,SID56479176,-0.0264,0.925,-0.00574,0.0553,0.125
KCNH2,SID135621164,-0.257,0.903,0.0751,0.125,0.0771
WNK1,SID152148140,-0.991,0.835,-0.0608,-0.0358,0.145
STRADA,SID152149670,-0.905,0.843,0.0227,-0.0307,-0.0283
CAMK2A,SID56478931,0.789,1,0.0658,0.0299,0.112
EFNB3,SID134315611,-1.68,0.771,-0.0703,-0.0528,-0.0756
STK38,SID152149792,-1.17,0.819,-0.00852,0.0315,0.176
MAP4K4,SID56478747,-0.0596,0.922,0.145,0.04,0.125
TLK1,SID56478782,-1.53,0.786,-0.0781,0.0921,0.137
TEC,SID152148252,-0.701,0.862,-0.073,0.0171,0.0914
TTBK1,SID135620866,0.618,0.984,-0.0113,0.14,0.0811
ULK1,SID56478976,0.534,0.976,0.0451,0.128,0.178
CDK14,SID56478888,0.435,0.967,-0.0483,0.112,0.108
PAK3,SID56478716,0.153,0.941,0.03,0.0894,0.088
MKNK2,SID152150791,0.323,0.957,0.0561,0.0661,0.035
BMPR2,SID135620969,-0.223,0.906,0.0107,0.00114,0.00841
WT1,SID152147201,-0.134,0.915,-0.0722,-0.0158,0.0356
BRDT,SID152149808,-0.681,0.864,-0.0321,-0.112,-0.125
NR2F2,SID134309873,-1.85,0.756,-0.117,0.00187,0.133
CDK18,SID56478887,-1.8,0.761,0.0527,-0.0157,0.0358
APC,SID152153239,0.61,0.983,0.162,0.115,0.225
IGF2R,SID152150296,0.789,1,0.0289,0.0253,0.0261
IPPK,SID152153893,-0.823,0.851,0.0206,0.0602,-0.0385
CDK3,SID56478597,0.789,1,-0.0224,0.00676,0.15
RPS6KA3,SID152150758,0.613,0.984,0.00656,0.0531,-0.0399
AK2,SID56479162,0.789,1,-0.0224,-0.0435,0.153
PIP4K2A,SID135621253,0.789,1,-0.0224,-0.0435,-0.0965
PKN1,SID56478783,0.789,1,0.0146,-0.023,0.00141
TYK2,SID135620633,0.0147,0.928,-0.0257,0.00212,0.0827
KIT,SID152151885,0.789,1,0.0178,-0.0435,0.0509
ADCK5,SID56479281,-1.18,0.818,-0.0868,-0.0148,-0.062
PAPSS2,SID152148635,-1.24,0.813,-0.19,0.0648,0.0736
AK5,SID56478914,-1.1,0.825,-0.0353,0.0806,0.071
LATS2,SID152149461,0.789,1,-0.0224,-0.0435,0.0234
GRK6,SID135620853,0.431,0.967,0.00184,0.015,0.0549
DGKH,SID134311961,0.601,0.983,-0.0171,0.14,0.0505
JAK1,SID152154758,0.789,1,-0.0224,0.0215,-0.0773
SRC,SID56478553,0.549,0.978,0.074,0.0435,-0.0182
CAMK2B,SID135620913,0.789,1,0.0778,-0.0273,0.127
WNK4,SID56478961,0.789,1,0.0302,0.00648,0.0672
BMAL1,SID134314841,0.00517,0.928,0.0761,0.0893,0.105
SOS2,SID152153288,0.605,0.983,-0.039,0.0107,-0.194
CIB2,SID134316517,0.789,1,-0.0224,0.0667,0.131
SMAD2,SID152156776,-1.36,0.801,-0.0669,-0.0666,-0.0967
PBK,SID56479058,0.423,0.966,-0.0433,-0.0126,-0.0552
TAOK1,SID152151735,-0.0924,0.919,-0.0185,-0.0685,0.0383
CLK3,SID56478875,-0.0691,0.921,0.119,0.00406,0.0652
MAP3K5,SID56478697,0.789,1,0.0371,-0.00843,-0.00443
DGKB,SID56479090,0.032,0.93,-0.0018,0.0409,0.234
BRWD1,SID135622024,-0.677,0.864,0.145,0.096,0.145
FOXP1,SID135620800,0.0343,0.93,0.0848,0.0591,0.134
PHKG1,SID152147540,0.259,0.951,0.0571,0.0604,0.202
GUK1,SID152156775,0.488,0.972,0.0187,0.0963,0.127
IP6K3,SID135621241,-1.36,0.801,0.00585,-0.133,0.0832

Records above whose target name starts with W or w (3):
Gene,PubChem SID,"robust z-score, knock-down alone","viability, DMSO vs non-targeting control (fraction of control)",synergy score with BYL719,synergy score with cetuximab,synergy score with trametinib
WNK1,SID152148140,-0.991,0.835,-0.0608,-0.0358,0.145
WT1,SID152147201,-0.134,0.915,-0.0722,-0.0158,0.0356
WNK4,SID56478961,0.789,1,0.0302,0.00648,0.0672
